# Results as given in paper PMC5384254, “Discovery of new muscarinic acetylcholine receptor antagonists from Scopolia tangutica” (Scientific Reports, 2017).
# The chains behind the UniProt entries cited, without tags or fusion partners.
# UniProt P20309, whole entry: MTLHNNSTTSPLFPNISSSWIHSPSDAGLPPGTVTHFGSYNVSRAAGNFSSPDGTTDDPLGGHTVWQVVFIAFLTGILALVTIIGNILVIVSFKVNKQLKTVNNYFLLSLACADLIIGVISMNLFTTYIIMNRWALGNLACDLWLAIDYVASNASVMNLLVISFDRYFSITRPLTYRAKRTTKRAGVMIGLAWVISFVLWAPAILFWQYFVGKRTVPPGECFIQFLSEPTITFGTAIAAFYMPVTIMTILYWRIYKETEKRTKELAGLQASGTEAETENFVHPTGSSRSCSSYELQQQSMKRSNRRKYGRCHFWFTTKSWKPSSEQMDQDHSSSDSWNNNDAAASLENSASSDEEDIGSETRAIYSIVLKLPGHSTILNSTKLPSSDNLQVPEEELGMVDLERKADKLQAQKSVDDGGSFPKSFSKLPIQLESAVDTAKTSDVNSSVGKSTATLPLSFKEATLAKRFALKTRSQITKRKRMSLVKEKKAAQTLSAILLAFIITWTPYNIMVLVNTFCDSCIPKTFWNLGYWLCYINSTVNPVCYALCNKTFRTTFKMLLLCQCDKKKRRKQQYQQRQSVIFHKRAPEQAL
# Target: M3 receptor (Homo sapiens, UniProt P20309)
# Experiment: two-step DMR assay, pure compounds, on endogenous M3 receptor in HT-29 cells
smiles,measurement,value
"CN1[C@@H]2C[C@@H](OC(=O)[C@H](CO)c3ccccc3)C[C@H]1[C@@H]1O[C@@H]12 [Compound 1, scopolamine, reference compound]",IC50,40 ± 10 nM
